# Microarray screen: hit calls

From ROBIN, a set of small-molecule microarray screens (doi:10.1002/anie.202211358).

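Compounds were printed on reactive glass slides in duplicate spots, a dye-labelled oligonucleotide was laid over them, and the fluorescence left after washing was read. The data file lists only calls. An earlier report of the laboratory on the PreQ1, TPP and SAM-II riboswitches (doi:10.1038/s41467-019-09493-3) used 1 µM RNA for 2 h and required a mean Z-score above 3 (spot signal-to-noise against the whole library), a score well above that on a control array, and duplicate spots agreeing (coefficient of variation under 100); it then also set aside compounds that hit other targets, which this list keeps. The cut-offs behind this list may differ. The calls come from the array alone, and fixing a compound to the slide can hide its binding.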
Key: Y = hit, N = tested without a hit.
Compounds were drawn at random from those tested, without regard to their results.
A dash means that no call is listed here.

Targets, with sequences 5′ to 3′:
T1: PreQ1 riboswitch RNA pseudoknot, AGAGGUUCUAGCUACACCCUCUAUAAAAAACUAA. From B. subtilis. About 170 hits among about 24,000 compounds.
T2: SAM-II riboswitch RNA pseudoknot, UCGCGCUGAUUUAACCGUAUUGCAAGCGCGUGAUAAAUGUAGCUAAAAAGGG. About 200 hits among about 21,000 compounds.
T3: TPP riboswitch RNA three-way junction, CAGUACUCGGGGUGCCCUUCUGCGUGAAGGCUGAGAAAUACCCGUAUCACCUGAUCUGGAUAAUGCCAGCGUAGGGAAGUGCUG. About 160 hits among about 24,000 compounds.

structure,T1,T2,T3
CCn1c(CNc2ccc(C(=O)O)cc2)nc2ccccc21,N,N,N
N#CC1=C(N)OC2=C(C1c1cccc(F)c1)S(=O)(=O)N(Cc1ccccc1F)c1ccccc12 (stereo not given),N,-,N
CCCc1cncnc1N1C[C@@H](N)C[C@H]1C(=O)N(CC)CC,N,N,N
Cc1c(-c2cnn(C)c2)nc(N)c(C#N)c1-c1cc(CN(C)C)cs1,N,N,N
CNCCN1C(=O)CC[C@H]2CN(C(=O)CCCc3cn[nH]c3)CC[C@H]21,N,N,N
Cn1cccc1CNCc1ccc(F)cc1,N,N,N
Cc1c(-c2cn(C(C)c3nnc(N)s3)nn2)c(=O)n(-c2ccccc2)n1C (stereo not given),N,N,N
Nc1nonc1C(=O)N1CCN(C(=O)Nc2ccccc2C(F)(F)F)CC1,N,-,N
CSc1ccc(C2C(C#N)=C(N)OC3=C2C(=O)CCC3)cc1 (stereo not given),N,N,N
COC(=O)C1=C(N)OC2=C(C(=O)CC(C)(C)C2)C1c1ccc(C(=O)OC)cc1 (stereo not given),N,N,N
O=C1OC2(CCN(C(=O)C3CNCCO3)CC2)CN1CCc1ccccc1 (stereo not given),N,N,N
CCCN(c1ccc(C(C)C)cc1)S(=O)(=O)c1cc(Br)cnc1N,N,-,N
N#CC1=C(N)Oc2cc(O)ccc2C1c1ccc2c(c1)OCO2 (stereo not given),N,N,N
Cc1cc(N2Cc3cnn(Cc4ccc(F)cc4)c3C2)nc(N)n1,N,N,N
Cc1nc(C(C)C)sc1C(=O)N1C[C@H]2CCC[C@@]2(CO)C1,N,N,N
CC1CCN(C(=O)C2CCC(CNc3c(N4CCOCC4)c(=O)c3=O)CC2)CC1 (stereo not given),N,-,N
CC(C)c1onc(-c2c(Cl)cccc2Cl)c1COc1ccc(C=Cc2cccc(C(=O)O)c2)c(Cl)c1,N,N,N
c1ccc2c3c(ccc2c1)CNCc1ccc2ccccc2c1-3,Y,N,N
OCC#CCSc1nnc(-c2ccc(Cl)cc2)o1,N,N,N
Cc1ccsc1CNc1ccccc1C(=O)N1CCCC(CCN)C1 (stereo not given),N,N,N
CSCc1ccc(C(=O)N2C[C@H](c3ccc(C)o3)[C@@H](N)C2)o1,N,N,N
CC(C)Oc1ccc(C(=O)O)cc1,N,N,N
Cl.Cn1c(=O)n(C)c2cc(CNC34CC5CC(CC(O)(C5)C3)C4)ccc21,N,N,N
CCOC(=O)C1=C(O)C(=O)N(Cc2ccccc2)C1,N,N,N
Cn1c(=O)n(C)c2cc(C(=O)O)c(N)cc21,N,N,N
Cc1cc(N[C@H](C(N)=O)[C@@H](C)O)nc(-c2cccnc2)n1,N,N,N
CC1(C)CC(=O)C=C(Nc2cccc(O)c2)C1,N,N,N
COc1cccc2c1[C@@]13CCN(CC4CC4)[C@@H](C2)[C@]1(OC)CCC(=O)C3,N,N,N
CN(CCO)Cc1c(NC(=O)c2ccccc2)sc2c1CCCC2,N,N,N
Cn1c(C(=O)O)c(CNCCc2ccccc2Cl)c2ccccc21,N,-,N
CCc1nc2nc(C)cc(Nc3ccccc3Cl)n2n1,N,N,N
Nc1nonc1-c1noc(-c2ccccc2Cl)n1,N,N,N
COc1ccc2c(c1)C(C(=O)N1CCc3c(c(CO)nn3C)C1)CC(=O)N2 (stereo not given),N,N,N
Nc1nnc(SCC(=O)Nc2nc(-c3ccccc3)cs2)s1,N,N,N
CCN(CC)CCN1C(=O)c2cccc3cc(N)cc(c23)C1=O,N,N,N
CCOC(=O)c1ccc2nc(-c3ccc(S(=O)(=O)F)cc3)cc(O)c2c1,N,N,N
Cc1cccc2c1c(-c1cncc(N)c1)nn2C,N,N,N
Cc1ncc(CO)c2c1Oc1nc(-c3cccc(Cl)c3)[nH]c(=S)c1C2,N,N,N
Cc1cc(NC(=O)NC(=O)c2ccccc2NC(=O)C(C)N)ccc1Oc1ncc(Br)cn1.Cl (stereo not given),N,N,N
COc1cc(Cn2nccc2N)cc(OC)c1OC,N,N,N
COC(=O)c1cnc(Nc2cc(C)c(Cl)cc2OC)c2ccccc12,N,N,N

Some entries from above, unchanged:

structure	T1	T2	T3
Cc1cc(N[C@H](C(N)=O)[C@@H](C)O)nc(-c2cccnc2)n1	N	N	N
Cc1c(-c2cn(C(C)c3nnc(N)s3)nn2)c(=O)n(-c2ccccc2)n1C (stereo not given)	N	N	N
COc1ccc2c(c1)C(C(=O)N1CCc3c(c(CO)nn3C)C1)CC(=O)N2 (stereo not given)	N	N	N
CCOC(=O)c1ccc2nc(-c3ccc(S(=O)(=O)F)cc3)cc(O)c2c1	N	N	N
Cn1c(C(=O)O)c(CNCCc2ccccc2Cl)c2ccccc21	N	-	N